# Source: publication doi:10.1101/2025.01.13.632716
# These are yes or no findings as the source states them, for the method shown. Binding seen in cells or lysates may run through a third protein. A yes stands for co-enrichment or nearness to the bait. Other partners may have been found.
# B1: β-sliding clamp DnaN (protein, UniProt B8GXP6 1-372)
# chain: MKLTIERAALLKALGHVQSVVERRNTIPILSNILLSAEGDRLSFSATDLDMEIIDEGFAQIDVPGQITAPAHTLYEIVRKLPDGADVSLSFSGDDPRLVIQAGRSRFNLPVLPAGDFPVMSSDGLSSRIAVDTNELIRLIDKTRFAISTEETRYYLNGLYVHTVNEGGETKLRAVATDGHRLALAEMPAPEGAVGIPGVIVPRKTIAEARRLMESAGETVDLQVSPQKVRFEFGAAALTSKVIDGAFPDYMRVIPRDNAKILTLDNDLFAKAVDRVATISAEKSRSVKLAVEPGRITLTVRNMEAGQAVEEVEVDYDGEPFEIGFNARYLLDVCGQIAGPQAEFRFADPASPTLVVDPVDPGVKYVLMPLRV
# Molecular target: C-terminal tandem affinity purification (TAP)-tagged IncA (Caulobacter crescentus)
# Assay: affinity purification with mass spectrometry
binder,measurement,value
B1,binding,binds
